# PubChem BioAssay AID1224828, NIAID – 2016
# Assay: 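Knock-downs that increase or decrease LPS-induced p65 nuclear translocation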 (primary screen)
# Cell system: mouse RAW264.7 G9 macrophage reporter cells (GFP-p65, Tnf promoter-mCherry)
# Reagent: siRNA pool against mouse genes, 100 nM
# Time to read-out: 2 days siRNA transfection, then 40 min LPS before fixation
# Conditions: LPS (Salmonella minnesota R595) at 10 ng/ml
# Read-out: 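Imaged p65 nuclear translocation ratio, normalised to the plate median, converted to robust z-scores and averaged across two replicates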
# Scale: p65 translocation robust z-score: higher = more nuclear NF-kappaB p65 after LPS than the plate median; nuclear/cytoplasmic p65 ratio: higher = more nuclear NF-kappaB p65
# Active means: 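Called active when z exceeds 3.3 or falls under -1.56 (median of Tlr4 controls), giving activity score of at least 50; no calls for control wells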
# Calls: active = hit (p65 shift raised or lowered); inactive = no clear change
# Here is an unselected part of about 17,000 deposited reagents. Over the whole deposit, 762 (4.5%) got an active call. 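Active calls include both raised and lowered p65 entry, mostly lowered; wells with fewer than 50 cells lack a z-score.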 The raw values are shown without normalisation. A number with no mark means an inactive call.
gene knocked down,p65 translocation robust z-score,"nuclear/cytoplasmic p65 ratio, rep 1","nuclear/cytoplasmic p65 ratio, rep 2",low cell count flag
Abcc10,0.09,1.56,1.7,enough cells to score
Or2y15,-0.93,1.5,1.27,enough cells to score
Cct2,-0.45,1.33,1.32,enough cells to score
Cryba1,-1.81 (active),1.15,1.13,enough cells to score
Myc,0.15,1.47,1.36,enough cells to score
Nqo1,0.84,1.57,1.51,enough cells to score
NALP6,-0.67,1.7,1.47,enough cells to score
Dusp6,1.19,1.82,1.58,enough cells to score
Cxcr1,1.2,1.63,1.8,enough cells to score
Ppp4c,0.89,1.62,1.49,enough cells to score
Ascl1,0.36,1.7,1.64,enough cells to score
Tdg,-1.23,1.21,1.13,enough cells to score
Taf6l,0.56,1.51,1.69,enough cells to score
Zbtb38,-0.6,1.3,1.26,enough cells to score
Or5b3,2.63,2.06,1.72,enough cells to score
Ralgapa1,-0.03,1.62,1.43,enough cells to score
H2-D4,0.55,1.64,1.7,enough cells to score
Map3k12,-0.69,1.52,1.34,enough cells to score
Rai2,0.33,1.57,1.55,enough cells to score
Sf3a2,,1.2,1.17,fewer than 50 cells per well; well left out of scoring
Rdh11,,1.41,1.19,fewer than 50 cells per well; well left out of scoring
C1qtnf9,-0.62,1.36,1.44,enough cells to score
Tnrc18,0.73,1.74,1.49,enough cells to score
Abcb11,-1.05,1.46,1.45,enough cells to score

Reagents listed so far marked active:
gene knocked down,p65 translocation robust z-score,"nuclear/cytoplasmic p65 ratio, rep 1","nuclear/cytoplasmic p65 ratio, rep 2",low cell count flag
Cryba1,-1.81 (active),1.15,1.13,enough cells to score
